Laboratory results: PubChem BioAssay (EPA / NIEHS)
This list was built around the results that the source calls inconclusive (neither active nor inactive); the mix of calls is not that of the screen. Potencies beside an inconclusive call are fits to weak or partial responses and may not hold up. Activity calls are given as the source filed them. The calls were made as follows: active = hit-call score of the fitted dose curve at least 0.9, where 1 is the maximum; inconclusive = response in the unintended direction; inactive = score below 0.9.

assay: ATG_M_19_XSP2: Attagene TRANS-FACTORIAL Multi-Species (XSP2) HepG2 Assay for M32 Transcription Factor (Internal Marker) (AID 2283822)
Procedure: ATG_XSP2_multi-species_TRANS is a cell-based, multiplexed assay created by modifying the existing Attagene TRANS-FACTORIAL system to include a panel of nuclear receptors from some or all the following species: human (Homo sapiens), mouse (Mus musculus), frog (Xenopus laevis), zebrafish (Danio rerio), chicken (Gallus gallus), and turtle (Chrysemys picta). The ECOTOX-FACTORIAL format uses HepG2, a human liver cell line, with measurements taken at 24 hours after chemical dosing in a 24-well plate. Xsp2 included 3 nM 6-alpha-fluorotestosterone and 1.5 nM norgestrel to stimulate the androgen receptor.ATG_M_19_XSP2 is one of 29 assay components measured or calculated from the ATG_XSP2_multi-species_TRANS assay. It is designed to make measurements of mRNA induction, a form of inducible reporter, as detected with fluorescence intensity signals by Reverse transcription polymerase chain reaction (RT-PCR) and Capillary electrophoresis technology.This assay endpoint, ATG_M_19_XSP2, was analyzed in the positive analysis fitting direction relative to DMSO as the negative control and baseline of activity. Using a type of inducible reporter, measures of mRNA for gain-of-signal activity can be used to understand the background control at the transcription factor-level as they relate to the gene. Furthermore, this assay endpoint can be referred to as a secondary readout, because this assay has produced multiple assay endpoints where this one serves a background control function. To generalize the intended target to other relatable targets, this assay endpoint is annotated to the background measurement intended target family, where the subfamily is internal marker.
Human liver HepG2 cells are transiently transfected with multiple reporter transcription units (MRTUs) in 6-well plates using FuGene 6 reagent (Roche; 3 ml FuGene/1 mg DNA). The MRTU constructs are regulated by a cis-regulating element (promoter). […] A major difference between the CIS and TRANS system is that in CIS activities of endogenous TFs are measured, whereas the TRANS assay evaluates changes in activities of exogenous, chimeric NR-Gal4 proteins. […] At the end of 24 hour incubation, total RNA was isolated using TriZol reagent (Invitrogen). The isolated RNA is then reverse-transcribed using oligo(dT) primer and Mo-MLV reverse transcriptase (Invitrogen) with DNAse I (Ambion) treatment for 30 min. The one-tenth of the produced cDNA was amplified by PCR using Taq DNA polymerase (Invitrogen) and two reporter sequence-specific primers. The PCR products were fluorescently labeled by primer extension with 6-arboxyfluorescein (6-FAM) 5'-labeled reporter sequence-specific primer (2 min at 95 C, 20 s at 68 C and 10 min at 72 C) and these products were digested with 5U of HpaI (New England Biolabs) for 2h at 37 C. The fragments were purified using Qiaquick PCR columns (Qiagen), analyzed on an ABI 3130xL genetic analyzer (Applied Biosystems) with peak positions identified by using a set of X-rhodamine (ROX)-labeled MapMarker1000 molecular weight standards (BioVentures). The raw capillary electrophoresis data was processed using Attagraph software (Attagene).

SMILES	outcome	AC50
O=C(Oc1ccccc1)c1ccc(O)cc1	inactive	–
Oc1ccc2cc(SSc3ccc4cc(O)ccc4c3)ccc2c1	–	inconclusive: 100 µM
CN(C)C(=N)N=C(N)N	inactive	–
CC/C(=C(/CC)c1ccc(O)cc1)c1ccc(O)cc1	–	inconclusive: 0.0111 µM
CCCCC(CC)COC(=O)c1ccc(O)cc1 (stereo unspecified)	inactive	–
BrCc1cccc(Oc2ccccc2)c1	–	inconclusive: 100 µM
Cc1oc(-c2ccccc2)nc1CCOc1ccc(C[C@H](Nc2ccccc2C(=O)c2ccccc2)C(=O)O)cc1	–	inconclusive: 0.161 µM
CCCCC(CC)COC(=O)c1ccccc1C(=O)O (stereo unspecified)	–	inconclusive: 102 µM
C[C@]12CC[C@@H]3c4ccc(O)cc4CC[C@H]3[C@@H]1C[C@@H](O)[C@@H]2O	–	inconclusive: 0.0188 µM
CC(C)(c1cc(Br)c(O)c(Br)c1)c1cc(Br)c(O)c(Br)c1	–	inconclusive: 9.5 µM
CC/C(=C(\c1ccccc1)c1ccc(OCCN(C)C)cc1)c1ccccc1	inactive	–
CC(=O)[C@@]1(O)CC[C@H]2[C@@H]3CCC4=CC(=O)CC[C@]4(C)[C@H]3CC[C@@]21C	inactive	–
C[C@]12CC[C@@H]3c4ccc(O)cc4CC[C@H]3[C@@H]1CCC2=O	–	inconclusive: 0.027 µM
O=c1c(-c2ccc(O)cc2)coc2cc(O)cc(O)c12	–	inconclusive: 1 µM
C#C[C@]1(O)CC[C@H]2[C@@H]3CCc4cc(O)ccc4[C@H]3CC[C@@]21C	–	inconclusive: 0.0259 µM
CN(CCOc1ccc(CC2SC(=O)NC2=O)cc1)c1ccccn1 (stereo unspecified)	–	inconclusive: 0.1 µM
Oc1ccc(C(c2ccc(O)cc2)C(Cl)(Cl)Cl)cc1	–	inconclusive: 10 µM
c1ccc2c(c1)ccc1ccccc12	–	inconclusive: 33.4 µM

Look-ups from the results shown:
BrCc1cccc(Oc2ccccc2)c1 – AC50: inconclusive: 100 µM
C#C[C@]1(O)CC[C@H]2[C@@H]3CCc4cc(O)ccc4[C@H]3CC[C@@]21C – AC50: inconclusive: 0.0259 µM
